The values below come from US20090191584, “Transcriptional repression of sodium-iodide symporter in thyroid carcinoma” (UNIVERSITY OF KENTUCKY RESEARCH FOUNDATION, published 2009).

Data set [1] concerns NIS-repressor complex (KAK-1 nuclear factors, contains PARP-1) (Homo sapiens). The data set can be described thus: EMSA. The settings on record: protein in an extract, protein details: KAK-1 nuclear extract, label: 32P.
Data set [2] concerns NIS-repressor complex (NPA'87 nuclear factors) (Homo sapiens). Briefly: EMSA. As to conditions: protein in an extract; protein details: NPA'87 nuclear extract; label: 32P.
Data set [3] deals with NIS-repressor complex (KAK-1 nuclear factors, contains PARP-1) (Homo sapiens). The data set can be described thus: competition with a labelled probe. As to conditions: protein in an extract, protein details: KAK-1 nuclear extract.
The test system is the same in data set [4]. Briefly: binding assay. As to conditions: UV crosslinking of 32P Comp-1, three specific regions on SDS-PAGE; protein in an extract; protein details: KAK-1 nuclear extract.
The mark [5] stands for this setting: 60x cold competed effectively, variant of Comp-1 (-653 to -615).
Setting [6] is: 60x cold failed to compete, variant of Comp-1 (-653 to -615).

For at least one entry, the source does not settle the construct or the ends of the probe. Where cells or extracts were used, other partners may take part. For some of these results: A negative result means that nothing was seen under these conditions.

Take “AAGCAGGCTGTGCAGGCTTGGATAGTGACATGCCCTTTTTGAGCCTCAATTTCCCCACCTGTCAACAGCAGACAGTGACAGCTGTGATCAGGGGATCACAGTGCATGGGGATGGGTGTGT (double strand) [Probe A (-684 to -565 hNIS)]”: the binding result in data set [1] (three specific bands, dose-related, competed by 20x cold probe, reduced about 50% by extra 0.2 M KCl) was “binds”; in data set [2], “binds”.

For the sequence “AGAGATTGCCTGACGTCAGAGAGCTAG (double strand) [CREB oligo]”, the binding result in data set [3] (90x cold) is listed as “no binding”.

With “AGCCTCAATTTCCCCACCTGTCAA (double strand) [Comp-1.3 (-643 to -620)]”, the binding result in data set [3] (setting [5]) is recorded as “binds”.

For the sequence “AGCTGTGATCAGGGGATCACAGTGCATGGGGATGGGTGTGTGCATGGGGATGGAGGGGCATTTGGGAGCCCTCCCCGATACCACCCCCTGCAGCCACCCAGATAGCCTGTCCTGGCCTGTCTGTCCCAGTCCAGGGCTGAAAGGGTGCGGGTCCTGCCCGCCCCTAGGTCTGGAGGCGGAGTCGCGGTGACCCGGGAGCCCAATAAATCTGCAACCCACAATCACGAGCTGCTCCCGTAAGCCCCAAGGCGACCTCCA (double strand) [Probe D / competitor probe-2 (-605 to -348)]”, the binding result in data set [3] (20x cold failed to compete) is recorded as “no binding”.

Consider “ATTCGATCGGGGCGGGGCGAGC (double strand) [Sp-1 oligo]”, for which the binding result in data set [3] (90x cold) is recorded as “no binding”.

Consider “CAATTTCCCCACCTGTCAACAGCA / TGCTGTTGACAGGTGGGGGAAATTG [Comp-1.4 (-638 to -615)]”, for which the binding result in data set [3] (setting [6]) is “no binding”.

As to “CACTGCCCAGTCAAGTGGTTCTTGA (double strand) [TTF-1/Pax-8 oligo]”, the binding result in data set [3] (90x cold) was “no binding”.

As for “CAGCTGCTCTATGAAGTGTGAAGAA (double strand) [Pax-8 oligo]”, the binding result in data set [3] (90x cold) is on record as “no binding”.

As for “CCCCGATACCACCCCCTGCAGCCACCCAGATAGCCTGTCCTGGCCTGTCTGTCCCAGTCCAGGGCTGAAAGGGTGCGGGTCCTGCCCGCCCCTAGGTCTGGAGGCGGAGTCGCGGTGACCCGGGAGCCCAATAAATCTGCAACCCACAATCACGAGCTGCTCCCGTAAGCCCCAAGGCGACCTCCA (double strand) [Probe B (-533 to -348 hNIS)]”, the binding result in data set [1] (no specific shift) was “no binding”.

Regarding “CGCTTGATGAGTCAGCCGGAA (double strand) [AP-1 (c-jun) oligo]”, the binding result in data set [3] (90x cold) is listed as “no binding”.

Regarding “GAGGGAGTTCCTGTGACTAGCAGAGAAAACAAAGTGAGCCAC (double strand) [TTF-2 oligo]”, in data set [3] (90x cold), the binding result is recorded as “no binding”.

Consider “GATCGAACTGACCGCCCGCGGCCCGT (double strand) [AP-2 oligo]”, for which the binding result in data set [3] (90x cold) is “no binding”.

As to “GCCCTTTTTGAGCCTCAATTTCCC (double strand) [Comp-1.1 (-653 to -630)]”, the binding result in data set [3] (setting [6]) was “no binding”.

In the case of “GCCCTTTTTGAGCCTCAATTTCCCCACCTGTCAACAGCA (double strand) [Comp-1 (-653 to -615)]”, the binding result in data set [3] (60x cold completely erased probe A shift) and in data set [4] was “binds” throughout.

In the case of “GTGACATGCCCTTTTTGAGCCTCAATTTCCCCAC (double strand) [Comp-0.9 (-660 to -627)]”, the binding result in data set [3] (setting [6]) is listed as “no binding”.

“TCCCCACCTGTCAACAGCAGACAGTGACAGCTGTGATCA (double strand) [Comp-2 (-633 to -595)]”: in data set [3] (60x and 90x cold failed to compete), the binding result is given as “no binding”.

As to “TTTTGAGCCTCAATTTCCCCACCT (double strand) [Comp-1.2 (-648 to -625)]”, the binding result in data set [3] (setting [5]) is on record as “binds”.
